Here are results for 1 compound from ChEMBL document CHEMBL3421607, “Design, synthesis and antibacterial activity of cinnamaldehyde derivatives as inhibitors of the bacterial cell division protein FtsZ” (Eur J Med Chem, 2015).

Values after ≈ are worked out from the molar mass of the structure shown.

Assay type in all cases: functional
Test [1] has as its system Escherichia coli. Kind of test: microbe, parasite or virus in culture. Conditions: ATCC 25922, 5 h.
Test [2] has as its system Pseudomonas aeruginosa. Kind of test: microbe, parasite or virus in culture. The note with it: ATCC 27853, 5 h.
The subject of test [3] is Staphylococcus aureus. Kind of test: microbe, parasite or virus in culture. Conditions: ATCC 25923, 5 h.
For test [4], the system named is Staphylococcus aureus. In words: microbe, parasite or virus in culture. The note with it: ATCC 25923, 24 h.
For test [5], the system named is Bacillus subtilis. Kind of test: microbe, parasite or virus in culture. The note with it: ATCC 9372, 24 h.
In test [6] the test system is Escherichia coli. Kind of test: microbe, parasite or virus in culture. The note with it: ATCC 25922, 24 h.
Test [7] deals with Bacillus subtilis. Kind of test: microbe, parasite or virus in culture. Conditions: ATCC 9372, 5 h.
The test system of test [8] is Streptococcus pyogenes. Kind of test: Antibacterial activity against penicillin-susceptible Streptococcus pyogenes clinical isolates after 24 hrs by broth microdilution method.
Test [9] concerns Pseudomonas aeruginosa. Kind of test: microbe, parasite or virus in culture. The note with it: ATCC 27853, 24 h.
Test [10] relates to Staphylococcus aureus. In words: microbe, parasite or virus in culture. The note with it: ATCC 29213, 24 h.
In test [11] the test system is Staphylococcus aureus. In words: Antibacterial activity against penicillin-resistant Staphylococcus aureus clinical isolates after 24 hrs by broth microdilution method. In general terms: Broth dilution looks for growth in wells or tubes with falling amounts of substance.
The subject of test [12] is Staphylococcus epidermidis. Kind of test: Antibacterial activity against penicillin-resistant Staphylococcus epidermidis clinical isolates after 24 hrs by broth microdilution method.

In the case of `COc1ccc(NC(=O)/C=C/c2ccccc2)cc1` [N-(4-METHOXYPHENYL)CINNAMAMIDE], the MIC in test [1] is 128 µg/mL (≈ 505 µM); in [2], 128 µg/mL (≈ 505 µM); in test [3], more than 128 µg/mL; in test [4], more than 128 µg/mL; in test [5] it was 128 µg/mL (≈ 505 µM); in test [6], 128 µg/mL (≈ 505 µM). Further, the MIC is more than 128 µg/mL in test [7]; more than 128 µg/mL in [8]; 128 µg/mL (≈ 505 µM) in test [9]; more than 128 µg/mL in test [10]; more than 128 µg/mL in [11]; more than 128 µg/mL in test [12].
